Results published in PubChem BioAssay AID1347426 (Functional Genomics Laboratory (NCATS/FGL), 2020).
Out of some 31,000 sequences screened, about 1,400 (4.5%) were called active.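 The calls were made as follows: active = median seed-adjusted z-score above 1 or below -1; inactive = the rest.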 The list shows a part of the results.

Test: Novel Modifiers of Survival Motor Neuron (SMN) Protein: Gene Identification via Genome-wide siRNA Screen;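 also: luminescence tracks full-length SMN protein made from the SMN2 reporter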
Settings: HEK293T SMN2-luciferase reporter, siRNA knockdown, 72 h; actives lie on both sides
Summary of the method: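 Genome-wide siRNA screen (10418 genes, 3 siRNAs each, 1 pmol per well) by reverse transfection in HEK293T cells stably carrying an SMN2-luciferase reporter; luminescence after 72 hours, normalized to negative-control siRNA, log10-transformed, MAD-scored.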

Sequence | median seed-adjusted z-score
CACUCACGGUGGAAUUGAATT against AOX1 | inactive: -0.0717
AGUCCUUUGUUUACAAGAATT against B3GALT5 | inactive: 0.144
GGAUGGACUUUAUCCAGCATT against TM7SF4 | inactive: 0.0246
CAAACCGAAUAGAAACUUUTT against PSMC1 | active: -2.23
CAAUAUUGUUGGUUAUCCUTT against DMGDH | inactive: 0.0323
CUACCUGAUAAAUACCCUUTT against UBE2H | inactive: 0
ACGUAUGCAUGCUAAAUUATT against MNX1 | inactive: 0.734
GGAACAAUCUGAGUGCGGUTT against ADORA1 | inactive: 0.022
GGAUAUCAUCUAGUGAUCUTT against CDKL3 | inactive: 0.243
GCCCUAUUAUAUACAUCAATT against SEC24B | inactive: -0.493
GGACGUAACUAGUAACUUUTT against KCNN3 | inactive: -0.625
GAUUAAAGGUCAGCACUUATT against GSTT1 | inactive: 0.0781
GACCCAGCCGAAUACAACATT against NDUFB4 | inactive: -0.697
CCAUAGGCAGUCCUCCUAATT against USP38 | inactive: 0.216
CAAUCUCAAUGGGCUUGCATT against DLX3 | inactive: 0
CCAUUGACAAUCUAAACAATT against QPCT | inactive: 0.933
UCUUCGUCCUCAACAGUGATT against GMPPB | inactive: 0.154
GCACCGCGUUUGUCAAGUUTT against ASAP1 | inactive: 0.0592
GGAACUGAAUGUGGAUUCATT against MAP3K6 | inactive: 0
GGAAUGCUAUGAUAGACGATT against GNAQ | active: -1.23
UGCCUAUUGUGGAACCUGATT against ALDOC | inactive: 0.119
GGAUCUCGACUACAUAUAUTT against SLC5A12 | inactive: 0.279
CGGUGAAAUUCGCCUGUGATT against INMT | inactive: 0.863
GCUUUGGAAUUUCACUAUATT against RIPK5 | inactive: -0.00523
GAUAUUACGUUGACUGAGATT against C4BPA | inactive: 0.309
GGAUCAGCCUCAUCACCGATT against G6PC3 | inactive: -0.13
UGAGAGCCCUAAUACUAAATT against FIZ1 | inactive: 0.154

Another view of part of the listing above:
Sequence	median seed-adjusted z-score
GACCCAGCCGAAUACAACATT against NDUFB4	inactive: -0.697
CCAUAGGCAGUCCUCCUAATT against USP38	inactive: 0.216
CAAUCUCAAUGGGCUUGCATT against DLX3	inactive: 0
CCAUUGACAAUCUAAACAATT against QPCT	inactive: 0.933
UCUUCGUCCUCAACAGUGATT against GMPPB	inactive: 0.154
GCACCGCGUUUGUCAAGUUTT against ASAP1	inactive: 0.0592
GGAACUGAAUGUGGAUUCATT against MAP3K6	inactive: 0
GGAAUGCUAUGAUAGACGATT against GNAQ	active: -1.23
UGCCUAUUGUGGAACCUGATT against ALDOC	inactive: 0.119
GGAUCUCGACUACAUAUAUTT against SLC5A12	inactive: 0.279
CGGUGAAAUUCGCCUGUGATT against INMT	inactive: 0.863
GCUUUGGAAUUUCACUAUATT against RIPK5	inactive: -0.00523
GAUAUUACGUUGACUGAGATT against C4BPA	inactive: 0.309

The results go on.

Sequence | median seed-adjusted z-score
GCAGACCAGUUUAACAUCATT against KLHL10 | inactive: 0.0708
CUACUUUUAUCUUGCAUAATT against ZNF264 | inactive: 0.617
AUGUAUCUACUGUGCGUUUTT against CTGLF1 | inactive: 0.0231
GGUUACUUGUAUAUCGCUATT against TIE1 | inactive: 0.0629
CCUACGCGGGUAUCAGAAATT against ROBO1 | inactive: -0.096
GCAUGACCAUUGGGAUGUUTT against POLR1B | inactive: -0.434
CGAACUCCGCUUUUUCUUATT against FZD7 | inactive: -0.159
ACUGCUCACUUGUCAAUGATT against XRCC6BP1 | inactive: 0.128
GCUACACGGAAGUUGCUAATT against DNAH2 | inactive: -0.342
GCCGGUGCAUUUUACGGUUTT against RARS | inactive: -0.268
CCGUGAUCCUCACCAACUATT against REN | inactive: -0.48
CGAACUAGAUGAGACCAAATT against YKT6 | inactive: -0.065
GGGUCCAACGUAUCUCUUATT against PTPRR | inactive: 0.502
GCAACAUCACGGAGUCAUATT against UBE2Q1 | inactive: -0.241
CCAACUACCCAGACGAUUATT against BMP1 | inactive: -0.298
GGUUGUUAGUGGAUCAUCATT against FBXW11 | inactive: 0.206
CGAAAGGUCAGAUCAACAATT against SERPINB5 | inactive: -0.0181
GGCUUGCGAGUGUCACAAATT against DMRTC2 | inactive: 0
GCAGUGAAGUAGCAUCAAUTT against ISL1 | inactive: 0.138
CCUCGUAACUUCACAGGUATT against ULK4 | inactive: 0.0834
CCAGUUCUUUAGGAUCUAUTT against GPR141 | inactive: -0.777
GGAAGACUUUUAAUGUACATT against ZNF578 | inactive: -0.808
CCAUUCAGCCUGAUCUAAATT against REPS1 | inactive: 0.185
GAUCCGUUGGUGCAUGAAATT against ABHD2 | active: -1.21
GCAGCAUCUUUUUCCGAAUTT against GJB6 | inactive: 0.0376
GCAGAUCACUAACAUCGCUTT against POLA1 | inactive: -0.317
CGGACAGGCUGAUGACUCATT against SHH | inactive: -0.517
